Reference: US20190315842A1
Positions count from the first letter of the chain named. Results are given in words; binding and its absence hold for the method and conditions named. Some entries that bind do so weakly or less than the wild type.

Amino acid sequences for entries named in this document (tags omitted). Residues count along the entry.
UniProt P08603, residues 1107-1231: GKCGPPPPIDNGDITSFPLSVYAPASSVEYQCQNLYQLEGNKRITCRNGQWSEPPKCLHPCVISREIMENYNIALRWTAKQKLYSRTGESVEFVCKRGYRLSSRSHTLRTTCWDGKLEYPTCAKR

B1: Ab7957/293i (antibody, IgG1, V domains shown)
VH: LVESGGGVVPPGKSLRLSCAASGFTFSLYGIHWVRQAPGKGLEWVAVISYDGNTKYYTDSVKGRFTISRDNAKNTIYLQMNSLRLDDTAVYYCAKGAANSATFDFWGRGTMVTVSS
VL: MTQSPDSLTLSLGERATINCRSSRTVLYRSNNKNYLAWYQHKPGQPPKLLMSWASTRETGVPDRFSGSGSGTHFTLTITSLQPEDVAVYYCQQYYSPPWTFGQGTKVEIR
B2: Ab7955 (antibody, V domains shown)
VH: LVESGGGVVRPGRSLRLSCVASGFTFNAYGMHWVRQGPGKGLEWLAVISYEGKTVYYADSVKDRFTISRDNSRNTVSLHLNNLRGEDTAVYYCAKGSASAAVLQHWGQGTLVSVTS
VL: MTQSPGSLAVSLGSRATINCKSSRSLLYRSNNKNYLAWYQQKPGQSPRLLIYWASSRESGVPDRFSGGGSGTSFTLTISSLQAEDVAVYYCQQYFNPPWTFGQGTKVEIK
B3: Ab7960/293i (antibody, IgG1, V domains shown)
VH: LVESGGGVVQPGKSLRLSCVASGFSFSTYGMHWVRQAPGKGLEWVAVMSFDGKTKYYADSVKGRFTISRDNPKNTLYLQMNSLRSEDTAVYYCAKGGAAAAVFDSWGPGILLTVSS
VL: MTQSPNSLAVSLGGRATINCKASQSILYRSNNKNYLAWYQHKAGQPPKLLIYWASTRESGVPERFSGSGSRTDFTLTINGLQAEDVAVYYCQQYYNPPWTFGQGTKVEIK
B4: Ab7979 (antibody, IgG1, V domains shown)
VH: B3 VH with S25T, P108Q
VL: B3 VL with A22T, A43P, G60R, E63D, N79S
B5: Ab7961/293i (antibody, IgG1, V domains shown)
VH: B3 VH with S25T, T28S, P108Q
VL: B3 VL with A22T, A43S, E63D, N79S

target: SCR19-20 (human CFH short consensus repeat domains 19 and 20) (human) (UniProt P08603); assay: ELISA: non-reduced SCR19-20-biotin captured on Neutravidin, antibody at 0.2 µg/ml, anti-human IgG-HRP/ABTS, OD 405 nm

| binding | Binder |
| --- | --- |
| binds | B1 |

target: reduced SCR19-20 (human CFH short consensus repeat domains 19 and 20, reduced) (human) (UniProt P08603); assay: ELISA: TCEP-reduced SCR19-20-biotin captured on Neutravidin, antibody at 0.2 µg/ml, anti-human IgG-HRP/ABTS, OD 405 nm

| binding | Binder |
| --- | --- |
| binds | B1 |
| binds | B2 |
| binds | B3 |
| binds | B4 |
| binds | B5 |

target: reduced SCR19-20 (human CFH short consensus repeat domains 19 and 20, reduced) (human) (UniProt P08603); assay: immunoblot, SDS-PAGE under reducing conditions, antibody at 0.5 µg/ml, anti-human IgG-HRP, chemiluminescence; lane numbers as in Table 10

| binding | Binder |
| --- | --- |
| binds | B1 |
| binds | B2 |
| binds | B3 |
| binds | B4 |
| binds | B5 |
